Data from PubChem BioAssay AID2685 (National Center for Advancing Translational Sciences (NCATS), 2010).
Some of the results follow. These are further read-outs of the screen, such as a control signal, another cell line or another target. No call is given for them. The list favours compounds with an active or inconclusive main result. The note in brackets gives the kind of curve behind each potency; many fits are weak.

Test: qHTS Assay for Lipid Storage Modulators in Drosophila S3 Cells;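 as to cell number change: cells counted by Cell Tracker Red CMTPX staining in the red channel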
Conditions: BODIPY lipid droplet fluorescence, 18-24 h; for cell number change: measured here: cell count max response, cells fed with added oleic acid
Summary of the method: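 Laser-scanning cytometry quantifies lipid droplet accumulation (500–530 nm total intensity; droplet/cell object ratio) in oleic acid-fed (400 uM added) Drosophila S3 cells treated with a concentration series. 20 uM Triacsin C defined 100% inhibition.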

[1] = measured here: cell number channel AC50, cells fed with added oleic acid
[2] = measured here: lipid fluorescence (Fed channel) AC50, cells fed with added oleic acid

Compound	cell number change [%]	AC50 [1]	AC50 [2]
CC(=O)c1ccccc1OCCn1nnc(-c2ccc(C)cc2)n1	-37.7	23.1 µM [falling, single point]	29.1 µM [falling, single point]
N=c1c(C(=O)NCC2CCCO2)cc2c(=O)n3ccccc3nc2n1Cc1ccc(F)cc1 (configuration not stated)	23.3	–	–
CCNC(=S)NCc1ccco1	-7.78	–	–
COc1ccc(C(c2nnnn2CC2CCCO2)N2CCN(c3cccc(C)c3C)CC2)cc1 (configuration not stated)	-25.7	–	11.6 µM [rising, partial curve]
CCC(O)(CC)C(=O)N(Nc1ccc(C)cc1)c1ccc(C)cc1	12.6	–	–
Cc1nn(Cc2ccccc2Cl)c(C)c1C(=O)Nc1nnc(C2CC2)s1	97.9	–	23.1 µM [rising, partial curve, poor fit]
CN(C)c1[nH]c(=O)c(C#N)c2c1CCN2Cc1ccccc1	-8	–	29.1 µM [rising, single point]
Cc1ccc2[nH]c(=O)c(CN(C(=O)c3cccc([N+](=O)[O-])c3)C(C)C)cc2c1	24.1	–	11.6 µM [rising, single point]
CCCCC(CC)CNC(=O)C(=O)c1ccccc1NC(C)=O (configuration not stated)	34.3	4.11 µM [rising, partial curve]	–
CCN1CCc2c(OCC(=O)N3CCCc4ccccc43)cccc2C1=O	-25.2	0.82 µM [falling, single point]	–
COc1ccccc1C1=NOC(C)(c2nnc(Cc3ccccc3)o2)C1 (configuration not stated)	3.88	–	23.1 µM [rising, single point]
COc1cc(OC)c(-n2cc(-c3ccc(OC)c(OC)c3)[nH]c2=S)cc1Cl	12.6	–	0.326 µM [falling, full curve, poor fit]
COc1ccc2occ(C(C)=O)c2c1	0.921	1.64 µM [rising, partial curve]	20.6 µM [rising, single point]
O=C(Nc1ccc(S(=O)(=O)N2CCc3ccccc32)cc1)c1ccco1	-8.46	–	–
Cc1ccc(N(Cc2ccccc2)C(=O)Cc2ccc(S(=O)(=O)N3CCOCC3)s2)cc1	-8.43	–	–
CCOC(=O)c1cc(-c2ccc(Cl)s2)nc2c1c(C)nn2C	–	1.64 µM [rising, partial curve]	–
CCOC(=O)C1CCN(S(=O)(=O)c2ccc(OCC(=O)OC)cc2)CC1	-1.72	–	0.146 µM [falling, full curve, poor fit]
O=C(CCN1C(=O)c2ccncc2C1=O)NCc1ccc(Cl)cc1	24.4	–	23.1 µM [rising, single point]
COc1ccccc1NS(=O)(=O)c1cc(NC(=O)CCNC(C)=O)ccc1N1CCCCC1	-16.5	–	–
O=C(c1oc2ccccc2c1N1CCCCC1)N1CCCCC1	-10.8	–	6.51 µM [rising, partial curve]

Compound	cell number change [%]	AC50 [1]	AC50 [2]
COc1cccc(NC(=O)/C=C/c2ccccc2[N+](=O)[O-])c1	-13.3	0.00411 µM [falling, partial curve, poor fit]	8.2 µM [falling, partial curve]
O=S(=O)(c1ccc(N2CCOCC2)nc1)N(Cc1ccccn1)Cc1ccccn1	–	–	3.66 µM [rising, single point]
Cn1c(NC(=O)c2ccccc2C(F)(F)F)cc(=O)n(C)c1=O	–	6.51 µM [falling, single point]	–
Cc1cccc(NC(=O)c2nc[nH]c2C(=O)N2CCc3ccccc3C2)c1	3.04	–	–
O=C(O)c1csc(Br)c1Br	–	–	0.0058 µM [rising, full curve, poor fit]
CCOC(=O)c1c(NC(=O)CC)sc(C(=O)NC2CCCC2)c1C	-5.04	–	5.8 µM [falling, full curve, poor fit]
CCCCC1=CC2=CC(=O)C(C)(OC(=O)CC)C(=O)C2=CN1CCN1CCOCC1 (configuration not stated)	31.7	1.46 µM [rising, full curve, poor fit]	0.13 µM [rising, full curve, poor fit]
CCCCNC(=O)c1ccc(NC(C)=O)c(Cl)c1	8.68	0.112 µM [falling, full curve, poor fit]	–
COc1ccccc1NC(=O)CSc1nnc(C2CCCCC2)n1N	-5.67	–	–
Cc1ccc(C)c(N2CCN(c3ccncc3N)CC2)c1	-50	23.1 µM [falling, single point]	29.1 µM [falling, single point]
O=C(COc1ncnc2sccc12)Nc1cccc(S(=O)(=O)N2CCOCC2)c1	9	3.26 µM [falling, single point]	–
COc1ccccc1NC=C1C(=O)OC(C)(C)OC1=O	-9.25	–	4.11 µM [rising, single point]
O=C1NC(=S)S/C1=C\c1coc2ccccc2c1=O	32.3	0.517 µM [rising, full curve]	–
CCOC(=O)/C(=C/C=C1\Sc2cc(C)c(C)cc2N1CC)C(C)=O	-96.9	20.6 µM [falling, partial curve]	2.59 µM [falling, full curve]
CC(=O)NC(Cc1ccc(C)cc1)C(=O)NC1CCN(c2ncccc2[N+](=O)[O-])CC1 (configuration not stated)	8.35	–	20.6 µM [rising, partial curve, poor fit]
COC(=O)c1cc(=O)n(Cc2ccc3c(c2)OCO3)c(=Nc2ccccc2)s1	10.9	0.0058 µM [rising, full curve, poor fit]	–
CCOc1ccc(C(C)=O)cc1COC(=O)CCc1cc(OC)c(OC)c(OC)c1	9.24	–	6.51 µM [falling, single point]
CC(=O)c1ccc(Nc2ncnc3c2oc2ccccc23)cc1	-2.65	–	0.291 µM [rising, full curve]
COc1ccc(-c2cn3cc(C)ccc3n2)cc1Br	32.1	7.31 µM [rising, partial curve, poor fit]	8.2 µM [rising, partial curve]
C[C@@]12C(=O)N(c3ccc(C(F)(F)F)cc3)C(=O)N1[C@@H]1c3ccccc3OC[C@@H]1[C@H]2c1ccccc1	51.1	25.9 µM [rising, partial curve, poor fit]	29.1 µM [rising, single point]

Compound	cell number change [%]	AC50 [1]	AC50 [2]
CCCNc1c(NS(=O)(=O)c2ccc(OC)c(OC)c2)c(=O)oc2ccccc12	-28.9	2.91 µM [falling, single point]	6.51 µM [falling, partial curve]
CC(=O)N1CCCc2cc(S(=O)(=O)N3CCCC(C(=O)NCc4ccc(C)cc4)C3)ccc21 (configuration not stated)	15.6	–	0.00517 µM [falling, full curve, poor fit]
CCCn1nnnc1NC(=O)c1cc(Br)ccc1OC	1.12	–	–
Cn1c(=O)[nH]c(=O)c2c1nc(N1CCOCC1)n2CC(O)COc1ccccc1 (configuration not stated)	-19.9	–	0.517 µM [rising, full curve, poor fit]
COc1ccc(/C=N/n2c(=S)n(C)c3ccccc32)cc1OC	63	6.51 µM [rising, full curve]	4.61 µM [rising, full curve]
O=C(O)C1C2CCC(CC2)C1C(=O)N1CCN(Cc2ccc(F)cc2)CC1 (configuration not stated)	17.4	–	–
Cc1sc(NC(=O)CCl)c(C(=O)c2ccccc2)c1C	-36.7	14.6 µM [falling, single point]	20.6 µM [falling, single point]
CC1CC(=O)Nc2ccccc2N1S(=O)(=O)c1ccccc1 (configuration not stated)	23.7	1.03 µM [falling, partial curve, poor fit]	1.3 µM [falling, full curve]
O=C(COC(=O)c1ccccc1OC(F)F)Nc1ccc(N2CCCCC2)cc1	25.2	–	10.3 µM [rising, partial curve, poor fit]
CC(=O)C1=C(c2ccccc2)N(C(C)=O)n2c(C)nnc2S1	-129	4.11 µM [falling, partial curve]	–
CCOc1ccc(S(=O)(=O)N2CCCC(C(=O)NCc3ccncc3)C2)cc1Cl (configuration not stated)	–	–	5.17 µM [falling, partial curve]
CCCCC(=O)Nc1ccc2c(c1)nc(CCN1CCOCC1)n2C	-1.97	–	20.6 µM [rising, single point]
Cc1cc(C)cc(N(C(=O)Cc2cccs2)C(C(=O)NC2CCCC2)c2ccc(C)o2)c1 (configuration not stated)	85.1	29.1 µM [rising, single point]	–
Cc1cccc(C)c1OC(=O)CN1C(=O)c2ccccc2C1=O	111	29.1 µM [rising, single point]	0.58 µM [falling, single point]
Cn1c(=NCC(O)COc2ccccc2)sc2ccccc21 (configuration not stated)	-6.41	–	0.291 µM [rising, full curve, poor fit]
CCOC(=O)C1=C(O)/C(=C/c2ccc(OCC(=O)O)c(OC)c2)SC1=Nc1ccc(OCC)cc1	43.6	0.13 µM [rising, full curve]	2.59 µM [rising, partial curve]
Cc1ccc(NC(=O)COC(=O)C2CSC3(C)CCC(=O)N23)cc1S(=O)(=O)N1CCOCC1 (configuration not stated)	45.6	32.6 µM [rising, partial curve, poor fit]	16.4 µM [rising, single point]
NS(=O)(=O)c1cc(C(=O)OCC(=O)NC2CC2)ccc1Cl	-66.2	29.1 µM [falling, single point]	29.1 µM [falling, single point]

Given in markdown: entries from further up.

| Compound | cell number change [%] | AC50 [1] | AC50 [2] |
| --- | --- | --- | --- |
| O=C(COc1ncnc2sccc12)Nc1cccc(S(=O)(=O)N2CCOCC2)c1 | 9 | 3.26 µM [falling, single point] | – |
| COc1ccccc1NC=C1C(=O)OC(C)(C)OC1=O | -9.25 | – | 4.11 µM [rising, single point] |
| O=C1NC(=S)S/C1=C\c1coc2ccccc2c1=O | 32.3 | 0.517 µM [rising, full curve] | – |
| CCOC(=O)/C(=C/C=C1\Sc2cc(C)c(C)cc2N1CC)C(C)=O | -96.9 | 20.6 µM [falling, partial curve] | 2.59 µM [falling, full curve] |
| CC(=O)NC(Cc1ccc(C)cc1)C(=O)NC1CCN(c2ncccc2[N+](=O)[O-])CC1 (configuration not stated) | 8.35 | – | 20.6 µM [rising, partial curve, poor fit] |
| COC(=O)c1cc(=O)n(Cc2ccc3c(c2)OCO3)c(=Nc2ccccc2)s1 | 10.9 | 0.0058 µM [rising, full curve, poor fit] | – |
| CCOc1ccc(C(C)=O)cc1COC(=O)CCc1cc(OC)c(OC)c(OC)c1 | 9.24 | – | 6.51 µM [falling, single point] |
| CC(=O)c1ccc(Nc2ncnc3c2oc2ccccc23)cc1 | -2.65 | – | 0.291 µM [rising, full curve] |
| COc1ccc(-c2cn3cc(C)ccc3n2)cc1Br | 32.1 | 7.31 µM [rising, partial curve, poor fit] | 8.2 µM [rising, partial curve] |
| C[C@@]12C(=O)N(c3ccc(C(F)(F)F)cc3)C(=O)N1[C@@H]1c3ccccc3OC[C@@H]1[C@H]2c1ccccc1 | 51.1 | 25.9 µM [rising, partial curve, poor fit] | 29.1 µM [rising, single point] |
| CCCNc1c(NS(=O)(=O)c2ccc(OC)c(OC)c2)c(=O)oc2ccccc12 | -28.9 | 2.91 µM [falling, single point] | 6.51 µM [falling, partial curve] |
| CC(=O)N1CCCc2cc(S(=O)(=O)N3CCCC(C(=O)NCc4ccc(C)cc4)C3)ccc21 (configuration not stated) | 15.6 | – | 0.00517 µM [falling, full curve, poor fit] |
| CCCn1nnnc1NC(=O)c1cc(Br)ccc1OC | 1.12 | – | – |
| Cn1c(=O)[nH]c(=O)c2c1nc(N1CCOCC1)n2CC(O)COc1ccccc1 (configuration not stated) | -19.9 | – | 0.517 µM [rising, full curve, poor fit] |
| COc1ccc(/C=N/n2c(=S)n(C)c3ccccc32)cc1OC | 63 | 6.51 µM [rising, full curve] | 4.61 µM [rising, full curve] |
| O=C(O)C1C2CCC(CC2)C1C(=O)N1CCN(Cc2ccc(F)cc2)CC1 (configuration not stated) | 17.4 | – | – |
